Experimental data published in US9808466B2, “Macrocyclic compounds as protein kinase inhibitors” (Fundación Centro Nacional de Investigaciones Oncologicas …, priority 2011, dated 2017).
At least one read-out could not be matched to a standard name with certainty.

Assay: Pharmacokinetic in BALB-c female mice, i.v. and oral
Format: in vivo
Settings: P.O, dose 3.00 mg/Kg
Procedure: Experiments were done using BALB-c female mice, 10 weeks old. Compounds were dissolved in selected vehicles at a concentration calculated in order to administer the dose selected in 0.1 mL. Animals were administered by i.v and oral route (by gavage), and sacrificed at different time points (n=3 at each time point). Time points were 0.08, 0.25, 0.5, 1, 4 and 8 h for the i.v branch, and 0.08, 0.16, 0.25, 0.5, 1, 4, 8 and 24 h for oral branch. Blood was collected and processed for plasma which was analyzed and quantified by means of tandem mass spectrometry coupled with liquid chromatography. Pharmacokinetic parameters were estimated by fitting the experimental data to a compartmental model using Winnonlin software for pharmacokinetic analysis.

For `COc1ncc2cc1NS(=O)(=O)c1cccc(c1)C(=O)N1CCc3ccc(cc3C1)-c1ccnc3ccc-2cc13` [compound 39], the “Tmax (time at which the Cmax occurs)” value was 30 min.

Same assay, conditions: P.O, dose 10.00 mg/Kg

Compared with `COc1ncc2cc1NS(=O)(=O)c1cccc(c1)C(=O)NCc1cccc(c1)-c1ccnc3ccc-2cc13` [compound 3], `COc1ncc2cc1NS(=O)(=O)c1cccc(c1)C(=O)NCc1cccc(c1)-c1ncnc3ccc-2cc13` [compound 22] is 1.6-fold lower in “Tmax (time at which the Cmax occurs)” value: 15 min for the first, 9.6 min for the second.

`COc1ncc2cc1NS(=O)(=O)c1cc(c(F)cc1F)C(=O)NCc1cncc(c1)-c1ccnc3ccc-2cc13` [compound 10] and `COc1ncc2cc1NS(=O)(=O)c1cccc(c1)C(=O)NCc1cncc(c1)-c1ccnc3ccc-2nc13` [compound 31] are the same in “Tmax (time at which the Cmax occurs)” value: 15 min for the first, 15 min for the second.

Compared with `COc1ncc2cc1NS(=O)(=O)c1cccc(c1)C(=O)NCc1cccc(c1)-c1cnn3ccc-2nc13` [compound 16], `COc1ncc2cc1NS(=O)(=O)c1cccc(c1)C(=O)NCCn1cc(cn1)-c1ncnc3ccc-2cc13` [compound 33] is 3.1-fold lower in “Tmax (time at which the Cmax occurs)” value: 30 min for the first, 9.6 min for the second.

In the case of `COc1ncc2cc1NS(=O)(=O)c1cccc(c1)C(=O)NCC1=CC=C(S1)c1ncnc3c1SC2=C3C` [compound 68], the “Tmax (time at which the Cmax occurs)” value is reported as 15 min.
